This is an account of results in publication PMC6366968.

Amino acid sequences for entries named in this document (tags omitted). A change or cut given only in a name is not applied to a line headed by its entry.
UniProt Q14457: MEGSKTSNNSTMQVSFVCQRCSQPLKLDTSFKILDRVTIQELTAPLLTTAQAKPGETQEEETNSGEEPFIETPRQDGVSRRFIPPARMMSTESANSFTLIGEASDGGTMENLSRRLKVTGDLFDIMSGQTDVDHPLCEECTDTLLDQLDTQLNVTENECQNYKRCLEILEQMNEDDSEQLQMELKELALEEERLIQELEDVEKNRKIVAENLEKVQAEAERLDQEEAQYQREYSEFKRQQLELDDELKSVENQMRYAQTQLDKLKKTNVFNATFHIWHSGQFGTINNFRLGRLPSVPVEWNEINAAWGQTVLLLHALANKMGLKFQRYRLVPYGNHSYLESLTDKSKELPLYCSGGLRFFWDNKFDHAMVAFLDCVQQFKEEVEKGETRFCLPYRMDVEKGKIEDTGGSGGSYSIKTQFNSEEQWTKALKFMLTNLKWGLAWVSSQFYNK

This test has as its target T1, BCL2L10 (human (endogenous in Hep3B)) (UniProt Q9HD36).
T1 sequence: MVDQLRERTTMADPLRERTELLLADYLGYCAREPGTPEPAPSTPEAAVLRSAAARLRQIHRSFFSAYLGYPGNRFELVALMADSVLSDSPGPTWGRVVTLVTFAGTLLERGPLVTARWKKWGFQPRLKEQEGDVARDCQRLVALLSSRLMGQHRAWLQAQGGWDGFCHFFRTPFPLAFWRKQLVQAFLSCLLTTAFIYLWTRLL
The test can be described thus: co-IP; HCC cells transfected with wild-type or deletion constructs (Flag-BECN1ΔBH3, Myc-BCL2L10ΔBH1, Flag-BECN1ΔECD); EBC lysis buffer; anti-flag, anti-Myc or anti-BECN1 antibody with protein A/G beads; Western blot.

Results are given in words; binding and its absence hold for the method and conditions named. Binding seen in cells or lysates may run through a third protein.

For the substance Flag-BECN1ΔBH3 (from UniProt Q14457), the binding result was “no binding”.
